The experiment addresses mouse Lrg1 (mouse). Description: Biacore (SPR): recombinant mouse Lrg1 immobilised on the chip, mAb passed over at 100 nM.

These are yes or no findings as the source states them, for the method shown.

Here are results for 1 molecule from patent US20180028609A1 (UCL BUSINESS, published 2018).

B1: Antibody 15C4 (mouse monoclonal antibody against human Lrg1) (antibody, V domains shown)
VH: QVQLQQSGDEVVRPGSSVKISCKASGYTFSGYWMNWVKQRPGQGLQWIGQIYPGDGDTNYNGKFKGKATLTADKSSSTAYMQLSTLTSEDSAIYFCARSITTVVLDYWGQGTTLTVSS
VL: DIVLTQSPVSLAVSLGQRATISCRASQSVSTSGYSFMHWYQQKPGQPPKFLIKYASNLESGVPARFSGSGSGTDFTLNIHPVEEEDTATYYCQHSWEMPLTFGAGTKLELK
notes: Murine hybridoma antibody; also called mouse 15C4; mAb 15C4
Take B1: the binding entry was “no binding (tested: 100 nM)”.
